According to article PMC10313376:
Results are given in words; binding and its absence hold for the method and conditions named. Binding seen in cells or lysates may run through a third protein. Binding can be weak; no strength is given.

By UniProt entry, the sequences of proteins in these tests, tags left out. Residues count along the entry.
UniProt O88572, residues 20-1613: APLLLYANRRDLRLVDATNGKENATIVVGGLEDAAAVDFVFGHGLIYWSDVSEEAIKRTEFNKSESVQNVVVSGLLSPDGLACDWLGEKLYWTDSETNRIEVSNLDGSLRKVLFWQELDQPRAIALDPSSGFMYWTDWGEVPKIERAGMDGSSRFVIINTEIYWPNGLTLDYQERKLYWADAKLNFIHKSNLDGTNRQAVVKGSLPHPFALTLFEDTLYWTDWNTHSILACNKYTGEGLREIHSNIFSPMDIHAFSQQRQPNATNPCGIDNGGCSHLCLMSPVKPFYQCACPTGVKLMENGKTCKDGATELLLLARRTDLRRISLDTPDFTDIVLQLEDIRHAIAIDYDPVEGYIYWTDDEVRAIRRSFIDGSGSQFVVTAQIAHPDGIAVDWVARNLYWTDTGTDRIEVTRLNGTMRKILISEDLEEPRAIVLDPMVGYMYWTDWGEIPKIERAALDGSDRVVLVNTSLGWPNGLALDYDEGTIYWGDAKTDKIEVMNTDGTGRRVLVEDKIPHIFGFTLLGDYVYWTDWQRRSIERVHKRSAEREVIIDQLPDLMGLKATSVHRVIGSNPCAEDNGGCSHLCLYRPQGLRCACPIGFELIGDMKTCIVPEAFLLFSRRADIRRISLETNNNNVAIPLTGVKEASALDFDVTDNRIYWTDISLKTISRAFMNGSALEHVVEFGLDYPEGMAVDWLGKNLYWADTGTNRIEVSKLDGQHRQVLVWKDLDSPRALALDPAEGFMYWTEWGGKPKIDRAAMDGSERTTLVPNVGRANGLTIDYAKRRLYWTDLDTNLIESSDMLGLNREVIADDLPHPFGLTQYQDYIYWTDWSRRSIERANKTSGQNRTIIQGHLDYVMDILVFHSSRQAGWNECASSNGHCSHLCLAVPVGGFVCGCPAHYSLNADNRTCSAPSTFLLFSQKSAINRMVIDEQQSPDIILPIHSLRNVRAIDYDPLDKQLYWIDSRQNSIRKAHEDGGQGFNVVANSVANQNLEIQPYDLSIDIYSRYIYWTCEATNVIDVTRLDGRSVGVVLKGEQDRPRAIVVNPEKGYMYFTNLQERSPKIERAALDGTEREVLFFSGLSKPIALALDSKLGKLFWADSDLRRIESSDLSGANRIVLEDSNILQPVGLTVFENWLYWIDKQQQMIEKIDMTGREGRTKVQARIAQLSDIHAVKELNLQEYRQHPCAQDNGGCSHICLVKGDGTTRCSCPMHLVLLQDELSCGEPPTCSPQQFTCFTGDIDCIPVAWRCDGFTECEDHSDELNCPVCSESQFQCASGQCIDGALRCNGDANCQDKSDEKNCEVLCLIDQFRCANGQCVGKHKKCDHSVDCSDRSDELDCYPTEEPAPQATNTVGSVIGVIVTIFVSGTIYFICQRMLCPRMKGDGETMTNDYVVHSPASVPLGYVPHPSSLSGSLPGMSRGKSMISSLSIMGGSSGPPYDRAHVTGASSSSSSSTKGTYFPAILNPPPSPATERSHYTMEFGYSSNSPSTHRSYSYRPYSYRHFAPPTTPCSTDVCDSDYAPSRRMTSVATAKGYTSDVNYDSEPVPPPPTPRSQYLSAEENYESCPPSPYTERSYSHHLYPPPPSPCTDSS

Each substance was assayed against FLAG-tagged mouse LRP6 (mouse) (UniProt O88572) (assay: co-IP; FLAG IP (ANTI-FLAG M2 Affinity Gel, 2 mg total protein, elution with FLAG peptide) from 293T cells cotransfected with FLAG-mLRP6 and mSELENOP constructs, blot for LRP6 and SELENOP or V5).

binding	Substance
binds	V5-tagged mouse SELENOP Δ258-267 (from UniProt P70274)
binds	V5-tagged mouse SELENOP Δ268-277 (from UniProt P70274)
binds	V5-tagged mouse SELENOP Δ278-287 (from UniProt P70274)
binds	V5-tagged mouse SELENOP Δ288-299 (from UniProt P70274)
